Measurements reported in PubChem BioAssay AID1259405 (NCATS, 2018)

Purpose: 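Silenced genes that increase secreted GFP made by CHO cells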 (primary screen)
System: Chinese hamster CHO-K1 ovary cells with stable secreted eGFP expression
Knock-down reagent: single siRNA against mouse genes, 0.8 pmol siRNA per well (2 µl of 400 nM stock)
Timing: 3 days
Measurement: 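Per-well intracellular GFP measured by laser scanning cytometry, plus viability from ATP luminescence, each relative to plate median of non-targeting control wells, in %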
Reading the numbers: GFP, % of control: higher = more GFP per well, higher productivity; viability (ATP), % of control: higher = more viable cells (more ATP)
Call rule: 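Called active when intracellular GFP, relative to negative control, is at or above 120%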
Shown is an unselected part of about 50,000 reagents. About 4,000 of them (8%) were called active. 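Mouse siRNA library applied to hamster cells; one well for each siRNA.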 Reagents against one gene are numbered here. Reagent sequences are not shown.

Target gene	siRNA no.	GFP, % of control	viability (ATP), % of control	Outcome
Sertad3 (GeneID 170742)	1	194	88.4	active
Sertad3 (GeneID 170742)	2	59.2	55.2	inactive
Sertad3 (GeneID 170742)	3	74.2	89.5	inactive
Sertad3 (GeneID 170742)	4	74.2	89.5	inactive
Sertad3 (GeneID 170742)	5	117	83.1	inactive
Sertad3 (GeneID 170742)	6	128	84.4	active
Frmd8 (GeneID 67457)	1	51.3	47.9	inactive
Frmd8 (GeneID 67457)	2	55.3	91.1	inactive
Frmd8 (GeneID 67457)	3	66.3	60.5	inactive
Trmt11 (GeneID 73681)	1	83.5	84.1	inactive
Trmt11 (GeneID 73681)	2	31.3	39.9	inactive
Trmt11 (GeneID 73681)	3	65	66.5	inactive
Rsph9 (GeneID 75564)	1	59	104	inactive
Rsph9 (GeneID 75564)	2	57	37.6	inactive
Rsph9 (GeneID 75564)	3	79.9	80.8	inactive
Pcdha3 (GeneID 192163)	1	70.4	58.6	inactive
Pcdha3 (GeneID 192163)	2	69.1	35.7	inactive
Pcdha3 (GeneID 192163)	3	69	79.4	inactive
Prr14l (GeneID 215476)	1	80.1	79.3	inactive
Prr14l (GeneID 215476)	2	68.1	80.9	inactive
Prr14l (GeneID 215476)	3	72.5	115	inactive
Or5m5 (GeneID 258581)	1	71.7	41	inactive
Or5m5 (GeneID 258581)	2	101	102	inactive
Or5m5 (GeneID 258581)	3	83.1	69.1	inactive
Mfap3 (GeneID 216760)	1	60.7	76.2	inactive
Mfap3 (GeneID 216760)	2	72.5	83.6	inactive
Mfap3 (GeneID 216760)	3	66.8	65.2	inactive
Map4k4 (GeneID 26921)	1	115	91	inactive
Map4k4 (GeneID 26921)	2	71.2	78	inactive
Map4k4 (GeneID 26921)	3	52.2	65.8	inactive
Foxc1 (GeneID 17300)	1	71.5	103	inactive
Foxc1 (GeneID 17300)	2	114	55.8	inactive
Akip1 (GeneID 57373)	1	71.8	85.8	inactive
Akip1 (GeneID 57373)	2	75.1	122	inactive
Akip1 (GeneID 57373)	3	177	78.3	active
Armc8 (GeneID 74125)	1	59.4	54.8	inactive
Armc8 (GeneID 74125)	2	65.8	80.3	inactive
Armc8 (GeneID 74125)	3	111	96.8	inactive
Lyar (GeneID 17089)	1	88.7	73.2	inactive
Lyar (GeneID 17089)	2	113	114	inactive
Lyar (GeneID 17089)	3	158	68.8	active
Asah2 (GeneID 54447)	1	89.3	90.1	inactive
Asah2 (GeneID 54447)	2	64.1	70.4	inactive
Asah2 (GeneID 54447)	3	64.6	86.4	inactive
Nupr1 (GeneID 56312)	1	63.8	59.6	inactive
Nupr1 (GeneID 56312)	2	120	62.1	inactive
Nupr1 (GeneID 56312)	3	80.2	51.3	inactive
Prx (GeneID 19153)	1	121	126	active
Prx (GeneID 19153)	2	68.7	66	inactive
Prx (GeneID 19153)	3	71.9	88.2	inactive

Limited to “viability (ATP), % of control” (10 entries from above):
Mfap3 (GeneID 216760) #3	65.2
Map4k4 (GeneID 26921) #1	91
Map4k4 (GeneID 26921) #2	78
Map4k4 (GeneID 26921) #3	65.8
Foxc1 (GeneID 17300) #1	103
Foxc1 (GeneID 17300) #2	55.8
Akip1 (GeneID 57373) #1	85.8
Akip1 (GeneID 57373) #2	122
Akip1 (GeneID 57373) #3	78.3
Armc8 (GeneID 74125) #1	54.8

Further records follow.
Target gene	siRNA no.	GFP, % of control	viability (ATP), % of control	Outcome
Retnlb (GeneID 57263)	1	83.7	95	inactive
Retnlb (GeneID 57263)	2	164	65.5	active
Retnlb (GeneID 57263)	3	93.6	111	inactive
Aimp2 (GeneID 231872)	1	57.5	76.2	inactive
Aimp2 (GeneID 231872)	2	71.6	75	inactive
Aimp2 (GeneID 231872)	3	78.6	83.7	inactive
Pmpca (GeneID 66865)	1	50.6	58.6	inactive
Pmpca (GeneID 66865)	2	63.7	72.9	inactive
Pmpca (GeneID 66865)	3	83.1	78.3	inactive
Cbarp (GeneID 100503659)	1	107	86.9	inactive
Cbarp (GeneID 100503659)	2	71.9	47.4	inactive
Cbarp (GeneID 100503659)	3	83	70.8	inactive
Or8j3 (GeneID 259019)	1	123	90.6	active
Or8j3 (GeneID 259019)	2	23.6	89.1	inactive
Or8j3 (GeneID 259019)	3	80.4	76.8	inactive
Adamtsl4 (GeneID 229595)	1	70.6	83.3	inactive
Adamtsl4 (GeneID 229595)	2	100	90.2	inactive
Adamtsl4 (GeneID 229595)	3	62.3	53.5	inactive
Sec62 (GeneID 69276)	1	52.3	76	inactive
Sec62 (GeneID 69276)	2	57.1	73.8	inactive
Sec62 (GeneID 69276)	3	80	68.1	inactive
Oc90 (GeneID 18256)	1	88.9	102	inactive
Oc90 (GeneID 18256)	2	79.5	72	inactive
Oc90 (GeneID 18256)	3	57.1	63.3	inactive
Mrgprh (GeneID 80978)	1	59	102	inactive
Mrgprh (GeneID 80978)	2	84.8	84.4	inactive
Mrgprh (GeneID 80978)	3	84.4	73.8	inactive
Uba5 (GeneID 66663)	1	60.7	79.6	inactive
Uba5 (GeneID 66663)	2	81.8	81.4	inactive
Uba5 (GeneID 66663)	3	36.7	87.6	inactive
Prrt1 (GeneID 260297)	1	77.3	76.8	inactive
Prrt1 (GeneID 260297)	2	93.3	81.5	inactive
Prrt1 (GeneID 260297)	3	83	80.3	inactive
Anapc4 (GeneID 52206)	1	67.7	66.1	inactive
Anapc4 (GeneID 52206)	2	70.4	52	inactive
Anapc4 (GeneID 52206)	3	92.9	92.1	inactive
